B1: rLZ-8: Recombinant Ganoderma Lucidum Immune Regulatory Protein expressed in Pichia pastoris (protein, UniProt P14945 2-111, looked up)
Immunomodulatory protein Ling …: SDTALIFRLAWDVKKLSFDYTPNWGRGNPNNFIDTVTFPKVLTDKAYTYRVAVSGRNLGVKPSYAVESDGSQKVNFLEYNSGYGIADTNTIQVFVVDPDTNNDFIIAQWN
B2: Genlei ™ Scimax ™: Recombinant human granulocyte colony-stimulating factor injection (rhG-CSF) (protein, UniProt P09919 31-207, looked up)
Granulocyte …: TPLGPASSLPQSFLLKCLEQVRKIQGDGAALQEKLVSECATYKLCHPEELVLLGHSLGIPWAPLSSCPSQALQLAGCLSQLHSGLFLYQGLLQALEGISPELGPTLDTLQLDVADFATTIWQQMEELGMAPALQPTQGAMPAFASAFQRRAGGVLVASHLQSFLEVSYRVLRHLAQP

System: WBC
Experiment: Cyclophosphamide low-leucocyte mice model, WBC
Type: in vivo
Procedure: rLZ-8 preparation of sterile saline. Divide them into 5 μg·kg^−1, 2.5 μg√kg^−1, 1.25 μg·kg^−1, 0.62 μg·kg^−1 dose groups.
Genlei™ Scimax™ [Recombinant human granulocyte colony-stimulating factor injection (rhG-CSF)], production lot: 20060403; 75 μg/vial is prepared with sterile normal saline into the preparation of 3.2 μg·kg^−1, 0.2 ml/vial.
Cyclophosphamide (CP) for injection (the production lot number 050216; 200 mg/vial) is prepared with sterile normal saline into the preparation of 12.5 mg·kg^−1, 0.2 ml/vial.
Normal control group, several protein dose groups, positive control group (Genlei™ Scimax™).
Excluding the normal control group (given same normal saline), each group of mice were given tail vein injection of cyclophosphamide, […], 0.2 ml/vial, for 3 consecutive days. On 3rd day, rat tail venous blood sampling, sent to Jilin University First Hospital laboratory, cell analyze the number of WBC. After successful modeling, they were given to the above groups respective dose of rLZ-8 and positive drugs (Genlei™ Scimax™) treatment, the normal control group and CP groups were given same normal saline, on the 3rd, 7th and 14th day of the treatment to draw venous blood from mice tail respectively, sent to Jilin University First Hospital testing the numbers of WBC. Compare WBC changes before and after the treatment for analysis of drug efficacy.

| Molecule | WBC, After modeling (rLZ-8 0.62 μg·kg−1 group) | WBC, After modeling (rLZ-8 1.25 μg·kg−1 group) | WBC, After modeling (rLZ-8 2.5 μg·kg−1 group) | WBC, After modeling (rLZ-8 5 μg·kg−1 group) | WBC, After modeling (Genlei Scimax 3.2 μg·kg−1 group) |
| --- | --- | --- | --- | --- | --- |
| B1 | 1.4 ± 0.45 | 1.7 ± 0.45 | 1.5 ± 0.54 | 1.3 ± 0.32 |  |
| B2 |  |  |  |  | 1.5 ± 0.35 |

Reference: patent US20110009597A1, “RECOMBINANT GANODERMA LUCIDIUM IMMUNOMODULATORY PROTEIN (rLZ-8) AND USES THEREOF” (priority 2008, published 2011)
